Residue numbers refer to the chain shown, from its start. Numbers in names are those of the source. Results are given in words; binding and its absence hold for the method and conditions named. For part of these data: Binding seen in cells or lysates may run through a third protein. Some binding calls cover weakened binding; strength is not graded here. Where a sequence is shown, tags or fusion partners need not be part of it.
T1: MBP-BRCA2 Ex14-Tr (human)
T1 sequence: RPTKVFVPPFKTKS

B1: DMC1 ΔN co-expressed with MBP-BRCA2 fragments (domain or fragment, UniProt Q14565 83-340)
chain: PGFLTAFEYSEKRKMVFHITTGSQEFDKLLGGGIESMAITEAFGEFRTGKTQLSHTLCVTAQLPGAGGYPGGKIIFIDTENTFRPDRLRDIADRFNVDHDAVLDNVLYARAYTSEHQMELLDYVAAKFHEEAGIFKLLIIDSIMALFRVDFSGRGELAERQQKLAQMLSRLQKISEEYNVAVFVTNQMTADPGATMTFQADPKKPIGGHILAHASTTRISLRKGRGELRIAKIYDSPEMPENEATFAITAGGIGDAKE
B2: His-DMC1 ΔN F85E mutant (domain or fragment, UniProt Q14565 83-340)
chain: B1 chain with F3E

Legend:
[1] = target: T1, MBP-BRCA2 Ex14-Tr (human); assay: pull-down; amylose pull-down after recombinant co-expression of the recombinase with MBP-BRCA2 fragments in E. coli
[2] = target: His-DMC1 ΔN F85E mutant (human) (UniProt Q14565); assay: SEC-MALS; Superdex 200 Increase 10/300 GL, 20 mM Tris pH 8.0, 500 mM KCl, 10 % glycerol, 2 mM DTT; both purified
[3] = target: T1, MBP-BRCA2 Ex14-Tr (human); assay: pull-down; lysates of bacterial cultures expressing His6-DMC1 ΔN mutants or MBP-BRCA2 constructs mixed; amylose affinity in 20 mM Tris pH 8.0, 500 mM KCl, 2 mM DTT; eluted with 30 mM D-maltose

Row | Binder | binding [1] | binding [2] | binding [3]
1 | B1 | binds | – | –
2 | B2 | – | no binding | no binding
